The supplement of paper PMC6411743
± gives the standard deviation of the averaged measurements. Only a part is listed here, and it is no random draw. Most entries show no effect beyond the scatter of the controls.

Protein sequences, listed by entry. Tags and fused reporters are not part of them.
UniProt P34972, whole entry: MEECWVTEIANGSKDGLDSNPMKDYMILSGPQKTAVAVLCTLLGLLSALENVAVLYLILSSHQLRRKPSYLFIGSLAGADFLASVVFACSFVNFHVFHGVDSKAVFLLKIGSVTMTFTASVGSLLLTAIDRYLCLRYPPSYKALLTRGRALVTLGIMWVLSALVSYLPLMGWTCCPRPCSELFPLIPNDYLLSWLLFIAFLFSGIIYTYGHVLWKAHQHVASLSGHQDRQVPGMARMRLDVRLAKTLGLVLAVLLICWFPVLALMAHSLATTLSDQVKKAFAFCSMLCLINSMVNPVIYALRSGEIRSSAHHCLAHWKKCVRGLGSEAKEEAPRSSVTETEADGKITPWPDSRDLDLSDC

Molecular target: CB2 (UniProt P34972)
Test: NP40-soluble protein abundance relative to vehicle (solubility fold change) (ratio); higher = more soluble protein in presence of ATP
Outline: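 Eight concentrations, 0.1 to 10 mM, were tested on Jurkat crude lysate for 10 min at room temperature and then 3 min at 37 °C, in three independent experiments. The lysate was solubilised with 0.8% NP40 and benzonase, ultracentrifuged, and the supernatant TMT-labelled for LC-MS/MS. Each value is the fold change against the detergent-processed vehicle in its own replicate, from vsn-normalised intensities.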

SMILES: Nc1ncnc2c1ncn2[C@@H]1O[C@H](COP(=O)(O)OP(=O)(O)OP(=O)(O)O)[C@@H](O)[C@H]1O [adenosine triphosphate]
- NP40-soluble protein abundance (concentration: 0.1mM): 1 ± 0.067
- NP40-soluble protein abundance (concentration: 0.5mM): 1.1 ± 0.12
